Data source: PubChem BioAssay AID743454 (Peter MacCallum Cancer Centre, 2014)

- Screen: 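Genes whose loss kills vorinostat-resistant colon cancer cells under vorinostat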 (primary screen)
- Cell system: human HCT116-VR colon cancer cells, selected for vorinostat resistance
- Reagents: siRNA pool against human genes, 40 nM siRNA pool
- Duration: vorinostat for 24 h, read-out about 72 h after transfection
- Challenge: vorinostat at 2.5 µM final
- Measured: 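Two measures, CellTiter-Fluor viability and luminescent caspase 3/7 activity, each as fold change against same-plate mock wells, mean of duplicates, then screen-wide robust z-score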
- Direction: viability robust z-score: higher = more viable cells than screen typical; caspase robust z-score: higher = more caspase 3/7 activity than screen typical
- Hit rule: 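a knock-down is a hit when classed RV1 or RV2 for lowered viability, or CA1 or CA2 for caspase activation; those lethal without drug were dropped; hits were retested singly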
Shown is one part, drawn at random, of about 18,000 reagents. In the full data, 450 (2.5%) are marked active. 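Single biological run; no consistent viability z cut-off exists, so the class columns, not z-scores, define the calls.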 A number with no mark means an inactive call.

The first 6 records, ahead of the listing:
target gene | viability hit class | caspase hit class | viability robust z-score | caspase robust z-score
SPATA46 | no change | no change | 0.62 | 0.15
SYNE4 | no change | no change | -0.09 | 1.17
CXCL3 | no change | no change | 0.8 | 1.09
ULBP2 | no change | no change | 0.36 | -0.74
NT5C3B | no change | no change | 1.69 | 3.13
GBF1 | no change | no change | -1.6 | 1.11

The listing, from the start:
target gene | viability hit class | caspase hit class | viability robust z-score | caspase robust z-score
SPATA46 | no change | no change | 0.62 | 0.15
SYNE4 | no change | no change | -0.09 | 1.17
CXCL3 | no change | no change | 0.8 | 1.09
ULBP2 | no change | no change | 0.36 | -0.74
NT5C3B | no change | no change | 1.69 | 3.13
GBF1 | no change | no change | -1.6 | 1.11
HOXD13 | no change | no change | 0.3 | 0.3
MTCH2 | no change | no change | -0.21 | -0.3
POLR2H | no change | no change | -0.78 | 2.75
HRG | no change | no change | 0.02 | -0.18
SCCPDH | no change | no change | 0.66 | 0.78
ZNF202 | no change | no change | 0.12 | 0.09
ZP3 | no change | no change | 1.08 | 0.36
ZNF408 | no change | no change | 0.74 | 2.22
SPATA18 | no change | no change | 0.8 | -0.58
NPAT | no change | no change | 0.41 | -0.29
KCTD1 | no change | no change | 1.03 | -0.55
TTC39B | no change | no change | 0.62 | 1.52
HDAC1 | no change | no change | 0.6 | 0.57
ENHO | no change | no change | 0.69 | -0.29
H2BC3 | no change | no change | -0.27 | 1.53
SMN1 | no change | no change | -1.4 | -0.61
HACD4 | no change | no change | 0.56 | 0.87
CTTNBP2 | no change | no change | 1.38 | 0.06
ZNF69 | no change | no change | -0.78 | -0.42
ERP27 | no change | no change | -0.5 | -1.12
USP9X | no change | no change | -0.08 | -1.02
ARPC5 | no change | no change | -1.52 | -1.09
OXNAD1 | no change | no change | 0.74 | -1.23
HS3ST5 | no change | no change | 0.73 | -0.46
NEXMIF | no change | no change | 0.2 | -1.19
RALGAPA1 | no change | no change | -1.67 | 0.74
SUMO2 | no change | no change | 0.63 | 1.15
ATP6V0A4 | no change | no change | -0.3 | -0.13
CEACAM1 | no change | no change | -0.11 | 0.45
ALDH9A1 | no change | no change | -0.65 | -0.44
BLNK | no change | no change | 0.26 | 1.52
FBXW10B | no change | no change | -0.02 | -0.4
SRPK1 | no change | no change | -1.36 | 0.04
FH | no change | no change | 1.44 | -0.62
SYCP2 | no change | no change | -0.05 | 0.02
NPHP1 | no change | no change | -0.74 | 0.34
MCCD1 | no change | no change | 0.36 | -0.16
MDGA2 | no change | no change | 1.64 | -0.39
VAX2 | no change | no change | -0.02 | 2.25
MRPL32 | no change | no change | 0.84 | -0.35
ZNF830 | RV2 (reduced viability) (active) | CA2 (caspase activation) | -3.5 | 6.1
ADORA1 | no change | no change | -1.33 | 1
PHF10 | no change | no change | -0.73 | -0.08
SLC39A1 | no change | no change | 0.23 | -0.84
LDHAL6B | no change | no change | -1.48 | -0.88
PREPL | no change | no change | 0.82 | -0.22
LANCL2 | no change | no change | 0.44 | 2.98
DET1 | no change | no change | -0.72 | 2.15
TBC1D2B | no change (active) | CA1 (caspase activation) | 1.04 | 5.42
DAXX | no change | no change | -0.18 | -0.28
S100A9 | no change | no change | -1.03 | 0.06
SMIM21 | no change | no change | -0.38 | -0.97
FSHB | no change | no change | 0.02 | 0.9
CDC42BPB | no change | no change | 0.01 | -0.68
TRMT5 | no change | no change | 0.6 | -0.43
CTAG2 | no change | no change | -0.63 | -0.92
TRIM15 | no change | no change | -0.37 | 1.12
STXBP4 | no change | no change | 1.42 | -0.77
INSC | no change | no change | -0.02 | 0.17
ZNF229 | no change | no change | -0.38 | -0.48
IFNA13 | no change | no change | 1.6 | -0.6
CTR9 | no change | no change | -0.45 | 0.15
SLC35F1 | no change | no change | 0.78 | 0.78
TMEM54 | no change | no change | -0.32 | 0.54
ISL1 | no change | no change | -0.67 | 0.06
CDS2 | no change | no change | -0.85 | -0.52
KCNJ5 | no change | no change | -0.06 | 0.96
